# The other results are listed elsewhere or left out. Most entries show no effect beyond the scatter of the controls.
# The chains behind the UniProt entries cited, without tags or fusion partners. Where a name states a change or a piece, a line headed by the entry shows the natural chain unless it says otherwise.
# UniProt P78509: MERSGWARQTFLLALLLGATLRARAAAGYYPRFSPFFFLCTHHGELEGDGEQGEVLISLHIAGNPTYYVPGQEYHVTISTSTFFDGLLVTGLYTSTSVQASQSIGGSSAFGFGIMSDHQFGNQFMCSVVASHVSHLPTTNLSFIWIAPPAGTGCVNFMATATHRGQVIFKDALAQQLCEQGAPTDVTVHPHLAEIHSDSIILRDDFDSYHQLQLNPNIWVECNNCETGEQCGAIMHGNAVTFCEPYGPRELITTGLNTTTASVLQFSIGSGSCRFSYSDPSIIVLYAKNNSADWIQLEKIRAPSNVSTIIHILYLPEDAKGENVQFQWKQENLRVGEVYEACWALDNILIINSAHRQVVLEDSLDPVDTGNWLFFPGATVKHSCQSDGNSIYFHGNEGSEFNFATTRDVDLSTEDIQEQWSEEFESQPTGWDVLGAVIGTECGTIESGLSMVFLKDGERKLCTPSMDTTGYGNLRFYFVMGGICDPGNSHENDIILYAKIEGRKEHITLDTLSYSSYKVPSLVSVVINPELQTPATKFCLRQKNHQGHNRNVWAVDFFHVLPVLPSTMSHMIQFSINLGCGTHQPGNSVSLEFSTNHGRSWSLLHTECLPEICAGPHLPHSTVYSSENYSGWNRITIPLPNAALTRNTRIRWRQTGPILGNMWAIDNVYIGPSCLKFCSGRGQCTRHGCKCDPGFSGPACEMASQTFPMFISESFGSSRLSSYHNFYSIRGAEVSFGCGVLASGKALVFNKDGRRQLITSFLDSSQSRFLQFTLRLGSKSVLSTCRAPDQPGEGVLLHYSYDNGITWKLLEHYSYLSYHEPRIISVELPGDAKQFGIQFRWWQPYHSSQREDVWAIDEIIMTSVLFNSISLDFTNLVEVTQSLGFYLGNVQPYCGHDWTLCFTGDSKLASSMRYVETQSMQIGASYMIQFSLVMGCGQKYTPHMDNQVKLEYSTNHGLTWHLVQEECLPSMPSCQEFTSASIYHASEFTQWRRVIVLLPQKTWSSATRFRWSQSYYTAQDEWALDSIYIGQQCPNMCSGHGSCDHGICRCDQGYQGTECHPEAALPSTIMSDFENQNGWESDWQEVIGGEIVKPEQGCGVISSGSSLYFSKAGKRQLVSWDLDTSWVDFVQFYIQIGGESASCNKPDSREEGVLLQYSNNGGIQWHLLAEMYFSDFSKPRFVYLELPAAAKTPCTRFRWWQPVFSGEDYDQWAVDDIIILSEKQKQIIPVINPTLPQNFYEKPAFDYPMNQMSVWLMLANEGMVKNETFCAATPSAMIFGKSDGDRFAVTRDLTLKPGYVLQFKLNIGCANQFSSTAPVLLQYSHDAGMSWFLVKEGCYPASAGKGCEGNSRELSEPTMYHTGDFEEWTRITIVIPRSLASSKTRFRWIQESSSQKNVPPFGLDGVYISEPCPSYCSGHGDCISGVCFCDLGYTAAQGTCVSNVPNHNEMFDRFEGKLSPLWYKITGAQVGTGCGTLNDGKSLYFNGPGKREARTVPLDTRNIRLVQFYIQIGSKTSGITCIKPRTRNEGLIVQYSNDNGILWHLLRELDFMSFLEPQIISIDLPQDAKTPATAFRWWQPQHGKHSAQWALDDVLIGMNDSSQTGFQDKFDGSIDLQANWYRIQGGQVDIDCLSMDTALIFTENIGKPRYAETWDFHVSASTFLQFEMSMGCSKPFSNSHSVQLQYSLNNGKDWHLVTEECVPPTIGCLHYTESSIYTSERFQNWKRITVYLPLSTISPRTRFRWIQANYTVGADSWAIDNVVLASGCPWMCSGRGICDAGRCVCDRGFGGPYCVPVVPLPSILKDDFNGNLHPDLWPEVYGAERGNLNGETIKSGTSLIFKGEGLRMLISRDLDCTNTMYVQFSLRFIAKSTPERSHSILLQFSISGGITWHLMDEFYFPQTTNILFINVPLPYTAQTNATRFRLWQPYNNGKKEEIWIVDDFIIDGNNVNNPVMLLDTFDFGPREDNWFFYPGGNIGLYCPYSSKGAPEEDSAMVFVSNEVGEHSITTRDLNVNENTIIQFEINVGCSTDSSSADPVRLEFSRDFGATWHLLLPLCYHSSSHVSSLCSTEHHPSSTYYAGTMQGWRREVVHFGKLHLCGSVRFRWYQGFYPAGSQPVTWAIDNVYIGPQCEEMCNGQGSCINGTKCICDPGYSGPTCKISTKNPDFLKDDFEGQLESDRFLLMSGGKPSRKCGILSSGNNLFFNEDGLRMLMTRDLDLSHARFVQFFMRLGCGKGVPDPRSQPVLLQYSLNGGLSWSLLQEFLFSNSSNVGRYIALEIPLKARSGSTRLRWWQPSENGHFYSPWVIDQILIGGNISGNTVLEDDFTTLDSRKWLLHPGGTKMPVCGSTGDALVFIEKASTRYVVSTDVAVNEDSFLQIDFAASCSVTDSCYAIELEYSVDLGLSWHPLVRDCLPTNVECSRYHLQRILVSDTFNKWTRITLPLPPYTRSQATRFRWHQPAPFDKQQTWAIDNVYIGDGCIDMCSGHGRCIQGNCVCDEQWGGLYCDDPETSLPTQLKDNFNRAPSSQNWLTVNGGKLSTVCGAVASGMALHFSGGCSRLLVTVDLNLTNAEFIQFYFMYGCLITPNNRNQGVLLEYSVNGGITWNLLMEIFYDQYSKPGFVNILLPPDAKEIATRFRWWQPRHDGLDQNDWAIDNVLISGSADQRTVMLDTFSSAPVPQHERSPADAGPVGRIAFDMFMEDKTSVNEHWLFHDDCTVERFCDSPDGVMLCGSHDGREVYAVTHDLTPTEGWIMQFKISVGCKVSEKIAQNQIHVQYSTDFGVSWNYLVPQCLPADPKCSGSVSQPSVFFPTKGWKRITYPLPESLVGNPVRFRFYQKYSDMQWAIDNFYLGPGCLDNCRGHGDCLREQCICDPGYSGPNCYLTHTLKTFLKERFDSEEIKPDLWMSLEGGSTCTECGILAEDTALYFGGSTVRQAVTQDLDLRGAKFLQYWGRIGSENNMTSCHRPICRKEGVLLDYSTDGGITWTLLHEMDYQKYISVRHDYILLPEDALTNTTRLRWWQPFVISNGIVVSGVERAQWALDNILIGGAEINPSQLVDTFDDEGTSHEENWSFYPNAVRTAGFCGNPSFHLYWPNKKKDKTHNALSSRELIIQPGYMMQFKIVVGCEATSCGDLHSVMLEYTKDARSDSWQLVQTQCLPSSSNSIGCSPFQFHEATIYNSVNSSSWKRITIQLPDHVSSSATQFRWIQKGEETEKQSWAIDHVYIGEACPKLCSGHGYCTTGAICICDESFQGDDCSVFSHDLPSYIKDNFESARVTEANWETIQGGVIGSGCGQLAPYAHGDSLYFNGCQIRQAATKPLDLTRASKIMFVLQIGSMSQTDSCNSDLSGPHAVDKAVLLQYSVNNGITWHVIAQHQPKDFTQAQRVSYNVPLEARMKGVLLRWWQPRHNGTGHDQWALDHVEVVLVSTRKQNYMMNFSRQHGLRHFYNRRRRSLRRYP
# UniProt P55263: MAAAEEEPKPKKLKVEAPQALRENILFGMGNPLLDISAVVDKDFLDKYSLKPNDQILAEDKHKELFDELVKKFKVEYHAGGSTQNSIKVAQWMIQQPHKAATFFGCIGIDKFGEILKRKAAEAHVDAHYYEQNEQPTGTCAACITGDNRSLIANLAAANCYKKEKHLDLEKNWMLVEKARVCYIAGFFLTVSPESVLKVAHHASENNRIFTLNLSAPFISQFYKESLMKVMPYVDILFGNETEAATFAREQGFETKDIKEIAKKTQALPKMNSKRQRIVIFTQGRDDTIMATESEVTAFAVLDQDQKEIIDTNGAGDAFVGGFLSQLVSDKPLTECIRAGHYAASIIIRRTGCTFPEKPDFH
# UniProt P58557: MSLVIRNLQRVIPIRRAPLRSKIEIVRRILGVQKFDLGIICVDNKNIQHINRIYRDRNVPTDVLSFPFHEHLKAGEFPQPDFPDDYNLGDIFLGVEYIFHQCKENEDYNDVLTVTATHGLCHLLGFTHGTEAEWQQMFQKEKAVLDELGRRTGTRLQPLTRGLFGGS
# UniProt P55060: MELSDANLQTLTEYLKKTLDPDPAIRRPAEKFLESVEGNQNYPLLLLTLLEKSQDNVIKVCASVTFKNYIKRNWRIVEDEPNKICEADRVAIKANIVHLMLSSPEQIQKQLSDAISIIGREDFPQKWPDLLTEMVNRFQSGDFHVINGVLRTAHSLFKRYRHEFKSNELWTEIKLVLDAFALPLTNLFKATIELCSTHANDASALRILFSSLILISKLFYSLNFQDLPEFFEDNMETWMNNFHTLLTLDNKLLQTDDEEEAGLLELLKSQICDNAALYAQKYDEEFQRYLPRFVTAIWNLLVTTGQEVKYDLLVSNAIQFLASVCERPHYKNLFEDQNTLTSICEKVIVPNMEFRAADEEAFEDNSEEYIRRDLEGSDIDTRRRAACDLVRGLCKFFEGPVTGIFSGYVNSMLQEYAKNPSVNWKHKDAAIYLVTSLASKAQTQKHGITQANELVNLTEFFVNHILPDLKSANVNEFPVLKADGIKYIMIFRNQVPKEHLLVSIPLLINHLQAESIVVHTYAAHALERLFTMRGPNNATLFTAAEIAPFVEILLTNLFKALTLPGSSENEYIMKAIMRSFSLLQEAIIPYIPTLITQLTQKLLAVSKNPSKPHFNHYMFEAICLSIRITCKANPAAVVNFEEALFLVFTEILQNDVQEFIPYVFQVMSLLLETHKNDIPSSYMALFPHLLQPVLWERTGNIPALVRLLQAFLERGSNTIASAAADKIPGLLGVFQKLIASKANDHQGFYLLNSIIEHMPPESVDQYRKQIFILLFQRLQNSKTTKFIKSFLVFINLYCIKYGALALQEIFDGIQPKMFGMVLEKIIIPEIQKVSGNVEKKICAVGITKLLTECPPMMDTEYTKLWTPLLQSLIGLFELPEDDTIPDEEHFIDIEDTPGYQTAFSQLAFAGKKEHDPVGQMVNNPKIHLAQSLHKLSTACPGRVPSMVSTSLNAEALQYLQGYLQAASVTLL
# UniProt P61968: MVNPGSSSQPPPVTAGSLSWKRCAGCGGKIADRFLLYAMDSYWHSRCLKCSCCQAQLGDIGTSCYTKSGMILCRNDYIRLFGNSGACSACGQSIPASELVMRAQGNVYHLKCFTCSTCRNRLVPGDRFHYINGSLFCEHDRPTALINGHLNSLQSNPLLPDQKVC
# UniProt P68366, whole entry: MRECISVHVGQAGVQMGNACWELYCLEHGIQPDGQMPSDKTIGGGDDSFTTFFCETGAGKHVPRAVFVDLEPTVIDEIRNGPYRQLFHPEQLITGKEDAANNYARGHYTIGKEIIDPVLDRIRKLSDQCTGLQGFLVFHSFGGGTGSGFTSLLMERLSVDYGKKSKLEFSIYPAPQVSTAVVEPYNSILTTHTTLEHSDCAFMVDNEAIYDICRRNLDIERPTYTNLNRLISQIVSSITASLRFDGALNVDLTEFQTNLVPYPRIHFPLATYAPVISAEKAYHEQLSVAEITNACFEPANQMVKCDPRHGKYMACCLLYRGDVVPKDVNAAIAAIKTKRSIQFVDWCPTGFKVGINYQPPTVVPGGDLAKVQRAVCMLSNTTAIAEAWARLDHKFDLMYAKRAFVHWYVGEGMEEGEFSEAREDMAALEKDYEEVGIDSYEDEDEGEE
# UniProt P84095: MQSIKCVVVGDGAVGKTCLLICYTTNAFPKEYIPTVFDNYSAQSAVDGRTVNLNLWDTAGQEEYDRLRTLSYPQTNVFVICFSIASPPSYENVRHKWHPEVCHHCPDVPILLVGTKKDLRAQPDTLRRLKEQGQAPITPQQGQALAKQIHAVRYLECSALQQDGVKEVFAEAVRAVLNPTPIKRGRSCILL
# UniProt P61020: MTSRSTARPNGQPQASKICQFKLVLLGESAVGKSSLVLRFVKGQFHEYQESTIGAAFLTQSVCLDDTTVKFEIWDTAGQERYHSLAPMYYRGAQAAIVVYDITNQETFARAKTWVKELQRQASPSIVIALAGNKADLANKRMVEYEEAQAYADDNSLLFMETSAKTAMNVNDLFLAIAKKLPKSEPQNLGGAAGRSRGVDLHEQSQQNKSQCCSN
# UniProt P55789: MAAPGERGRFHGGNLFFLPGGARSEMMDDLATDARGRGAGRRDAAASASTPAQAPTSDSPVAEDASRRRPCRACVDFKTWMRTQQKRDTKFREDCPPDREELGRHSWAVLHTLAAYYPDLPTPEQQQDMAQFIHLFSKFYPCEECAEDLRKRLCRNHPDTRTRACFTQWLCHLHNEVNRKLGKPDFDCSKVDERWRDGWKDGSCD
# UniProt P60981: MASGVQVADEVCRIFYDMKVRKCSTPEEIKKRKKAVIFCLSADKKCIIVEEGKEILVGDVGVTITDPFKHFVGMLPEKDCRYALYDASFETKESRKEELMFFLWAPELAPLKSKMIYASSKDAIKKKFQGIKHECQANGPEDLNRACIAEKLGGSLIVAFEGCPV
# UniProt P61009: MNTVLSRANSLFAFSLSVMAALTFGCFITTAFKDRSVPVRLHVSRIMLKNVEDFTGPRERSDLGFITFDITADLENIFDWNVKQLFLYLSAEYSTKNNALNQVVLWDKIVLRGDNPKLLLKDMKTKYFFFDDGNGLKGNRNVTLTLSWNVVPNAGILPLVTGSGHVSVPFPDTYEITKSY
# Compound: CN[C@@H]1C[C@H]2O[C@@](C)([C@@H]1OC)n1c3ccccc3c3c4c(c5c6ccccc6n2c5c31)C(=O)NC4 [staurosporine]
# Assay: log2 fold change of tryptic peptide abundance, ligand vs vehicle (limited proteolysis) (log2 ratio); higher = more trypsin-susceptible (destabilized)
# Conditions: ligand concentration: 20 uM; sample: K562 cleared lysate; digestion: 4 min, 22 C (HT-PELSA RT4min, Orbitrap Astral)
row,Target,log2 fold change
1,"HBA1 (peptide sequence: VGAHAGEYGAEALER, peptide start residue: 18) (UniProt P69905)",-0.22
2,"RPS21 (peptide sequence: MQNDAGEFVDLYVPRK, peptide start residue: 1) (UniProt P63220)",0.662
3,"RELN (peptide sequence: LSSYHNFYSIR, peptide start residue: 720) (UniProt P78509)",-0.515
4,"ADK (peptide sequence: AAAEEEPKPK, peptide start residue: 2) (UniProt P55263)",-0.128
5,"YBEY (peptide sequence: NVPTDVLSFPFHEHLK, peptide start residue: 58) (UniProt P58557)",0.119
6,"CSE1L (peptide sequence: RAACDLVR, peptide start residue: 384) (UniProt P55060)",0.718
7,"LMO4 (peptide sequence: CFTCSTCR, peptide start residue: 112) (UniProt P61968)",0.421
8,"UniProt P62495 (peptide sequence: GFGGIGGILR, peptide start residue: 405)",0.364
9,"UniProt P68366 (peptide sequence: YMACCLLYRGDVVPK, peptide start residue: 312)",-0.157
10,"UniProt P84095 (peptide sequence: AQPDTLRR, peptide start residue: 121)",0.398
11,"UniProt P55198 (peptide sequence: VVFSGFGPIMR, peptide start residue: 398)",-0.0882
12,"UniProt P57076 (peptide sequence: KLSDYVGK, peptide start residue: 203)",0.158
13,"NAA20 (peptide sequence: VSNQVAVNMYK, peptide start residue: 114) (UniProt P61599)",0.371
14,"UniProt P55196 (peptide sequence: SLVGLSQER, peptide start residue: 1065)",0.213
15,"NR1H2 (peptide sequence: TLSSVHSEQVFALR, peptide start residue: 429) (UniProt P55055)",-0.193
16,"UniProt P63000 (peptide sequence: HHCPNTPIILVGTK, peptide start residue: 103)",0.179
17,"UniProt P61020 (peptide sequence: GVDLHEQSQQNK, peptide start residue: 198)",-0.0828
18,"MRPS5 (peptide sequence: GALAETGAGAK, peptide start residue: 101) (UniProt P82675)",-0.165
19,"GFER (peptide sequence: FHGGNLFFLPGGAR, peptide start residue: 10) (UniProt P55789)",-0.146
20,"UniProt P62837 (peptide sequence: SQWSPALTISK, peptide start residue: 91)",0.186
21,"MRPS22 (peptide sequence: TFKPAIQELKPPTYK, peptide start residue: 90) (UniProt P82650)",0.199
22,"NUP107 (peptide sequence: SLLRQPDISCILGTGGKSPR, peptide start residue: 69) (UniProt P57740)",0.607
23,"GEMIN4 (peptide sequence: VGRPIVEALR, peptide start residue: 42) (UniProt P57678)",0.622
24,"DSTN (peptide sequence: KCSTPEEIK, peptide start residue: 22) (UniProt P60981)",0.178
25,"NCKAP1L (peptide sequence: HCATTISK, peptide start residue: 631) (UniProt P55160)",-0.0794
26,"UniProt P60763 (peptide sequence: AVLCPPPVK, peptide start residue: 175)",0.0492
27,"GTF2I (peptide sequence: FGEAIGMGFPVKVPYRK, peptide start residue: 880) (UniProt P78347)",0.209
28,"UniProt P60953 (peptide sequence: WVPEITHHCPK, peptide start residue: 97)",-0.105
29,"UniProt P61009 (peptide sequence: YFFFDDGNGLK, peptide start residue: 127)",-0.429

# An excerpt of these results, with bars between the fields:
row | Target | log2 fold change
8 | UniProt P62495 (peptide sequence: GFGGIGGILR, peptide start residue: 405) | 0.364
9 | UniProt P68366 (peptide sequence: YMACCLLYRGDVVPK, peptide start residue: 312) | -0.157
